The target of one assay is T1, OAS1-FLAG (human) (UniProt P00973).
T1 sequence: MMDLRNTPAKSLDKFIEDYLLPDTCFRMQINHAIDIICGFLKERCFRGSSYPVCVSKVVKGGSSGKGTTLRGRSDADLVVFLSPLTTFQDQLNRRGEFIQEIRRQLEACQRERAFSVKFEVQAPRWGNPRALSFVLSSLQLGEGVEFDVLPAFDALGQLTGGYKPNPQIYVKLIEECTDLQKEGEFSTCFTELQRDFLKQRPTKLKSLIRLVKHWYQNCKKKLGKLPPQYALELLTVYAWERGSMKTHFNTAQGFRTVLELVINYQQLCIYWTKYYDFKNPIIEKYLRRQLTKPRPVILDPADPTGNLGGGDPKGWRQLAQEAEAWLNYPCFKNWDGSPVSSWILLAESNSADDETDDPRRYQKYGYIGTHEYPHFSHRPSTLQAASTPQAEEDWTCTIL
Put plainly: co-IP; HEK293T co-transfected, 48 h; lysis in 10mM HEPES pH7.5, 30mM KCl, 40uM EDTA, 0.1% Igepal CA-630, 1mM DTT; FLAG-tagged sensor precipitated with anti-FLAG on Protein G Dynabeads, 2h at 4C; final washes with 300mM KCl, 0.5% Igepal; western blot. In general terms: Immunoblotting shows a protein as a band on a membrane.

Chains of the proteins cited; added tags and fusions are not shown. Lines headed by an entry give the natural chain unless they say otherwise; changes in a name come on top. A line that says so, or that is headed by a name, gives the form on record, which may keep a tag or linker. Residues count along the entry.
UniProt Q7Z2W4: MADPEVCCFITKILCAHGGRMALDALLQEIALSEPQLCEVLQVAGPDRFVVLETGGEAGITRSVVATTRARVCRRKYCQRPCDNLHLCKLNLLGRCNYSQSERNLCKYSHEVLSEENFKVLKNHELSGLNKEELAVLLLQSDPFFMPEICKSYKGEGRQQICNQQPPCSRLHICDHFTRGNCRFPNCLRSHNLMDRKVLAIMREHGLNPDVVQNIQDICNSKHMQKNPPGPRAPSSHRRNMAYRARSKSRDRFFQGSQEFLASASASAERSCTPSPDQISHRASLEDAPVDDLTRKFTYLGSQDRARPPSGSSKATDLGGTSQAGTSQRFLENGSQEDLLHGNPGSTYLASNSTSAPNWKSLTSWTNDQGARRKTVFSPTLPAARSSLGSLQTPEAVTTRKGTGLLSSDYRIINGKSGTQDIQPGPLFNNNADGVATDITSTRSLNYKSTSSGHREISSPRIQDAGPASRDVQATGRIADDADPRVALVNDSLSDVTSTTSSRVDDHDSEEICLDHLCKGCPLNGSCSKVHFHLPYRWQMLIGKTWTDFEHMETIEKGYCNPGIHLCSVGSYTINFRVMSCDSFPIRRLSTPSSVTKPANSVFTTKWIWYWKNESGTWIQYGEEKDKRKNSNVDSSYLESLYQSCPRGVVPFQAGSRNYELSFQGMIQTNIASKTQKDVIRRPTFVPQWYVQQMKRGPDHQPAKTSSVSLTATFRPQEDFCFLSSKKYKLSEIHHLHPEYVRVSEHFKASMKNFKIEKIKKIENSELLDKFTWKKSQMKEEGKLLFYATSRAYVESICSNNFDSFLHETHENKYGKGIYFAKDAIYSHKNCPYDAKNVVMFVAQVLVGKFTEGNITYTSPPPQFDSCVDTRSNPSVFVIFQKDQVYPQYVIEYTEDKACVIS
ZAP-S wildtype (Q7Z2W4, form named): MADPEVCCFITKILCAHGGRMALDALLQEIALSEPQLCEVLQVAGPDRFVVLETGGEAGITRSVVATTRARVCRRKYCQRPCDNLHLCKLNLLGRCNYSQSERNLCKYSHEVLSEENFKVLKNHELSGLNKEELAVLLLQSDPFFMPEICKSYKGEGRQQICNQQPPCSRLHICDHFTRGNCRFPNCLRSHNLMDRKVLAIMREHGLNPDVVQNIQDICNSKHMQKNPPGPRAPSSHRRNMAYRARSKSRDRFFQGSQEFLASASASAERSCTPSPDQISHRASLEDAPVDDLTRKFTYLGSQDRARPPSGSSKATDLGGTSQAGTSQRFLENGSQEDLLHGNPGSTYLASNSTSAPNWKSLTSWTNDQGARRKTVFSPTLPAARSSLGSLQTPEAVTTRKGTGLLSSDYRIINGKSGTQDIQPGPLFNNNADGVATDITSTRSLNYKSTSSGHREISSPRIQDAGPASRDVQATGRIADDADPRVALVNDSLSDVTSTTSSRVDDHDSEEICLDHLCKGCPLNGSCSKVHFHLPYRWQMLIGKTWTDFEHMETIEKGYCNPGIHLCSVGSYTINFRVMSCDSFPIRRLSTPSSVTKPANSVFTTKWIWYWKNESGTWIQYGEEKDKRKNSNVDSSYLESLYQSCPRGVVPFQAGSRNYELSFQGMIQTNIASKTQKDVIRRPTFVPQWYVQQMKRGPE
ZAP-S E39K (Q7Z2W4, form named): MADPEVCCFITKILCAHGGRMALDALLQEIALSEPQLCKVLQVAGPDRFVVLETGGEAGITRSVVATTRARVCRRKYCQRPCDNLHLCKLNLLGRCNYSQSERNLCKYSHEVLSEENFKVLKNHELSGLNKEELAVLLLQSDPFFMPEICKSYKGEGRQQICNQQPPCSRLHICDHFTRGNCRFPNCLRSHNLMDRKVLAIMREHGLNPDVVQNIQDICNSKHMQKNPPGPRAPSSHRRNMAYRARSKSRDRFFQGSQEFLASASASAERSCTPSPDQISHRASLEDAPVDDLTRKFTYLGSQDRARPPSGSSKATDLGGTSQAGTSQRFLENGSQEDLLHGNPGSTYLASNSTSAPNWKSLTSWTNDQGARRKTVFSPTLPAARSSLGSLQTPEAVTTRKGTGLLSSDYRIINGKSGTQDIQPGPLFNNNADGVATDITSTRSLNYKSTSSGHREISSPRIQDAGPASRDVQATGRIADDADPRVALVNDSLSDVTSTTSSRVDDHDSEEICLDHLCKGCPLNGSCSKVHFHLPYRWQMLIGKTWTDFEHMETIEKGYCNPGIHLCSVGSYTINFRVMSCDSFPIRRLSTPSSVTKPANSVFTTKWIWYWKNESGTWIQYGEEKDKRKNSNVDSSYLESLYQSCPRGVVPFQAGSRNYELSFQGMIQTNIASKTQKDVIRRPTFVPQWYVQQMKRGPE
UniProt Q86WV6: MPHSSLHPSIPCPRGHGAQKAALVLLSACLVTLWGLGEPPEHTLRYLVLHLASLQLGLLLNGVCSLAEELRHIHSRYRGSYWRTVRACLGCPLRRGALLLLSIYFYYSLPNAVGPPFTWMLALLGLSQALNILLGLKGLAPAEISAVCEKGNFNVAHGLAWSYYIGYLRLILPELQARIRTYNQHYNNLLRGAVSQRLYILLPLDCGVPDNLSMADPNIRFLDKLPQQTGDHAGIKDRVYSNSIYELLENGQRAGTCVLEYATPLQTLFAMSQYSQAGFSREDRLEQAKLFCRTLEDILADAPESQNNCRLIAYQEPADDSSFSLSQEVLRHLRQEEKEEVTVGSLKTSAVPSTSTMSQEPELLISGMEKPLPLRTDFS
UniProt Q8NG06: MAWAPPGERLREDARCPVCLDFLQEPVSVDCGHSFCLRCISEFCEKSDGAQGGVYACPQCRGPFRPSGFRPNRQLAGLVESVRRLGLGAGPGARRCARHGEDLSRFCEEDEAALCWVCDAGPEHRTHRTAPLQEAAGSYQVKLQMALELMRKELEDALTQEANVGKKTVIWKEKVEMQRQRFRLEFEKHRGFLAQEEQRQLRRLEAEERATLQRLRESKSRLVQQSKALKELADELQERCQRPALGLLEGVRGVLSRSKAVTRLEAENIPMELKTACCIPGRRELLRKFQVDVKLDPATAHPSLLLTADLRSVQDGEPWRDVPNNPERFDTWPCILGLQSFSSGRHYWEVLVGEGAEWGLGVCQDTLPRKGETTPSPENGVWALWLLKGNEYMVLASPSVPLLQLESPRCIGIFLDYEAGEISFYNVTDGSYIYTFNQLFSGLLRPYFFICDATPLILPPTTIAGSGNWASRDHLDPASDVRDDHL
UniProt Q14258: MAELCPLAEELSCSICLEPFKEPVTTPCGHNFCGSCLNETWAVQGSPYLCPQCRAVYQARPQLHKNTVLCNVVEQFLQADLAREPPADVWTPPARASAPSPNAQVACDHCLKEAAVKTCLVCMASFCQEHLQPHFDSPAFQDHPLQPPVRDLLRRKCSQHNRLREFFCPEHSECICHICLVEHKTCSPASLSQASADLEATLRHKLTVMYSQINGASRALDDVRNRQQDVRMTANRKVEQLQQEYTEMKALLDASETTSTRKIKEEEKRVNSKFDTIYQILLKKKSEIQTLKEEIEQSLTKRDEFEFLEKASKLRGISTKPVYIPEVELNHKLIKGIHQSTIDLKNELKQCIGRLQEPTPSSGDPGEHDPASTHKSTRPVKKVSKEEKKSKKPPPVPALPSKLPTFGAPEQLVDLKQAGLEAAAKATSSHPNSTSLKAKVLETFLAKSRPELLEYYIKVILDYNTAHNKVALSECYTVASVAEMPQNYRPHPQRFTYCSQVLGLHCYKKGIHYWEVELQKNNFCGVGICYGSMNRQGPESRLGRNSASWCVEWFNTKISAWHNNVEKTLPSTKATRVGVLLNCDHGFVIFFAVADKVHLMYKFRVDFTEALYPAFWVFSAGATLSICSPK
UniProt Q8IUD6: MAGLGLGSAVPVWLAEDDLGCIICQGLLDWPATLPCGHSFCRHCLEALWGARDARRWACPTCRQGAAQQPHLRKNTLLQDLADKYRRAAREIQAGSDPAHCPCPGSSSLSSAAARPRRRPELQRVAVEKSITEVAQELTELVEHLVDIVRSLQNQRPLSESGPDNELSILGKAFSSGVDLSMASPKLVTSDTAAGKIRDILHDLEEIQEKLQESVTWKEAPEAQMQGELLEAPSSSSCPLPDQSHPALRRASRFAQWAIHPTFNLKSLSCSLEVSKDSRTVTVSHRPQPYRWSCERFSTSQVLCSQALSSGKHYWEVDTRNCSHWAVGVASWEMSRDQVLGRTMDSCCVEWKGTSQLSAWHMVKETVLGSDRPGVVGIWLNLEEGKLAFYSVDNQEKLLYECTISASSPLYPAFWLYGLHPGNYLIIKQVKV
UniProt Q61510: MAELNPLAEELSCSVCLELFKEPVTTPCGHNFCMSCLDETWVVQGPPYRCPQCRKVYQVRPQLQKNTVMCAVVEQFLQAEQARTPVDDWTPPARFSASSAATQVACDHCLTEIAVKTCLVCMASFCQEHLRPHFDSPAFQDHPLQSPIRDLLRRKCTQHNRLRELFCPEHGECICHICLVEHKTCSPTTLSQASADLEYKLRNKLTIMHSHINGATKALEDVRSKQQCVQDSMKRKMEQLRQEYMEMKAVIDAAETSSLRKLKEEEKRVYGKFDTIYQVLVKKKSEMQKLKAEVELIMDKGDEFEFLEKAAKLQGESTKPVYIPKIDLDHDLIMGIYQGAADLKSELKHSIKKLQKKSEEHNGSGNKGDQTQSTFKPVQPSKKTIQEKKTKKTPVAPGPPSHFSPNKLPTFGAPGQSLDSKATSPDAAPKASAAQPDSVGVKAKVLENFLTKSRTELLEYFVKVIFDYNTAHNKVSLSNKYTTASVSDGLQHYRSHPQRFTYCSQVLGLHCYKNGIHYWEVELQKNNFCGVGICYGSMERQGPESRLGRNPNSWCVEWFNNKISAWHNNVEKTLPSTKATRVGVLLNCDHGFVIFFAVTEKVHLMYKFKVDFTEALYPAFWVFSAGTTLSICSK
UniProt Q6UXG8, residues 35-535: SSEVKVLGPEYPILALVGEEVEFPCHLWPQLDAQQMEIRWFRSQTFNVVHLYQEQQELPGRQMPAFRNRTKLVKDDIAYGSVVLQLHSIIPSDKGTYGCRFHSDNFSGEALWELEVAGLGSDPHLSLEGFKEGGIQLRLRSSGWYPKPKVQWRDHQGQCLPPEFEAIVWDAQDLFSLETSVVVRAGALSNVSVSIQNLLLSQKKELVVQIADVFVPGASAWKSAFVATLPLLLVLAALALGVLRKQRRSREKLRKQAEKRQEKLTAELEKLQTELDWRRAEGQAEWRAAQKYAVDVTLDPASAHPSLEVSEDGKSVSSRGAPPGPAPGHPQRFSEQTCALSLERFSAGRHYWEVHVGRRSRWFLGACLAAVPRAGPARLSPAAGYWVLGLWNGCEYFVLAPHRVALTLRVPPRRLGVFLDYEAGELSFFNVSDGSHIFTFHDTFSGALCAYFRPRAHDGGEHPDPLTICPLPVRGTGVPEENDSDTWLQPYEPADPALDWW

In assay [1] the target is ZAP-L-FLAG (human) (UniProt Q7Z2W4). The experiment in a line: co-IP; HEK293T ZAP-/- TRIM25-/- co-transfected, 48 h; ZAP precipitated from lysates (ZAP-L-FLAG with anti-FLAG; antibody for ZAP-S not stated); buffers as in the co-IP methods; western blot.
The target of a further assay is ZAP-S wildtype (human) (UniProt Q7Z2W4). The description is as above.
A further assay addresses ZAP-S E39K (human) (UniProt Q7Z2W4). The assay is described as above.
Another assay deals with ZAP^E39K (ZAP-L) (human) (UniProt Q7Z2W4). Described as above.
For a further assay, the target named is T2, RIG-I-FLAG (human) (UniProt O95786).
T2 sequence: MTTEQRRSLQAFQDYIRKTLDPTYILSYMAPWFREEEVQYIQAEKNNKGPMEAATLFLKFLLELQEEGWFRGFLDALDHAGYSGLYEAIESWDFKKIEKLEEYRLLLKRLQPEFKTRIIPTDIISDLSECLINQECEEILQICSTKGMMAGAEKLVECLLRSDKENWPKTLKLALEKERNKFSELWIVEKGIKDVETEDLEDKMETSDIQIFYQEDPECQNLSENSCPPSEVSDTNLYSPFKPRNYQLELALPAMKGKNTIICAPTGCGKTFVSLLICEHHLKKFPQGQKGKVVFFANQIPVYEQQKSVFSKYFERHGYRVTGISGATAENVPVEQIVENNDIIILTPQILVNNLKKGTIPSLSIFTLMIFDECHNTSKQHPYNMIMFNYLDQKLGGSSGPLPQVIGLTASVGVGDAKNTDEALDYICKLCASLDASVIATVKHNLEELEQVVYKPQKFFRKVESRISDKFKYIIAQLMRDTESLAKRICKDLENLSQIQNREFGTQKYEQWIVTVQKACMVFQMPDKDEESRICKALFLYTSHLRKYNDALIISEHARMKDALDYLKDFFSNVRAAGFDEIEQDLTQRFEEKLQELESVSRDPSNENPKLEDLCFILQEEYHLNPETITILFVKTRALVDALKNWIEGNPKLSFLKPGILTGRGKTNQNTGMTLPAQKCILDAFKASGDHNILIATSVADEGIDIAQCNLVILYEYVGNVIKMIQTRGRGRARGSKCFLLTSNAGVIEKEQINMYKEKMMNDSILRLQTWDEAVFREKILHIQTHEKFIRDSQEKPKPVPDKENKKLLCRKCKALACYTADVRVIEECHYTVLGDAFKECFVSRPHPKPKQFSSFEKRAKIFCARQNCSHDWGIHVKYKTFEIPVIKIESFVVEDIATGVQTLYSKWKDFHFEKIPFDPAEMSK
The experiment in a line: co-IP; HEK293T co-transfected, 48 h; lysis in 10mM HEPES pH7.5, 30mM KCl, 40uM EDTA, 0.1% Igepal CA-630, 1mM DTT; FLAG-tagged sensor precipitated with anti-FLAG on Protein G Dynabeads, 2h at 4C; final washes with 300mM KCl, 0.5% Igepal; western blot.

A further assay concerns the target T3, mouse ZAP-L (mouse) (UniProt Q3UPF5).
T3 sequence: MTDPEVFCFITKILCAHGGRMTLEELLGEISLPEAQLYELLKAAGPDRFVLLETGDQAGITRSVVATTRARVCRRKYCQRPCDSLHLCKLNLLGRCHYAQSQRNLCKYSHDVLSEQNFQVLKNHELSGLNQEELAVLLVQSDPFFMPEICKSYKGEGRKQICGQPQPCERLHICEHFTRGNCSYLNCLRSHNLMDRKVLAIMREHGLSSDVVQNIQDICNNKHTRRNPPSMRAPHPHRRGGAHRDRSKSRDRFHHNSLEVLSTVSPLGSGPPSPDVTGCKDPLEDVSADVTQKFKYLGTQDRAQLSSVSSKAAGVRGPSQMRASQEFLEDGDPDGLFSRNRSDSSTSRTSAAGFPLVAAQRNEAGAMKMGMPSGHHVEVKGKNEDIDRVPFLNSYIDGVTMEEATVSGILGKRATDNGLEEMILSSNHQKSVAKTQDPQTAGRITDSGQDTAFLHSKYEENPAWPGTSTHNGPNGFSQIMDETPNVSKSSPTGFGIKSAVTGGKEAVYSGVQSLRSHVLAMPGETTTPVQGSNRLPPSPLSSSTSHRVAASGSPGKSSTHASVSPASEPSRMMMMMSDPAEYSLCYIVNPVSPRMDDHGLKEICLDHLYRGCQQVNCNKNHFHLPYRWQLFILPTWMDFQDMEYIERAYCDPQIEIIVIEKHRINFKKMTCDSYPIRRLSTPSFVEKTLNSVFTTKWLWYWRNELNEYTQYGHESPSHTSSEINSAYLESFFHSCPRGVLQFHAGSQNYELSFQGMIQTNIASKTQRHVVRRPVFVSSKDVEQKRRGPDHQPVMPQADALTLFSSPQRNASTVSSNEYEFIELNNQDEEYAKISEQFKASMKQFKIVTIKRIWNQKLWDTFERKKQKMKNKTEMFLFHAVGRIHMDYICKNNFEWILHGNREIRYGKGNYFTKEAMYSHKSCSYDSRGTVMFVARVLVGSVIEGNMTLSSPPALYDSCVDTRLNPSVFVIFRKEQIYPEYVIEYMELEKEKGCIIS
Described as above.

Assay [2] concerns the target ZAP-L-FLAG (human) (UniProt Q7Z2W4). Put plainly: co-IP; HEK293T ZAP-/- TRIM25-/- KHNYN-/- N4BP1-/- co-transfected; ZAP-L complexes isolated from lysates; western blot; in Fig 5g 500ng of ZAP-L and TRIM25 plasmids with increasing amounts of KHNYN plasmid.
For assay [3] the target is unchanged. Put plainly: co-IP; HEK293T co-transfected, 48 h; lysis in 10mM HEPES pH7.5, 30mM KCl, 40uM EDTA, 0.1% Igepal CA-630, 1mM DTT; FLAG-tagged sensor precipitated with anti-FLAG on Protein G Dynabeads, 2h at 4C; final washes with 300mM KCl, 0.5% Igepal; western blot.
The target in a further assay is STING-FLAG (human) (UniProt Q86WV6). Described as above.

Results are given in words; binding and its absence hold for the method and conditions named. In cells and extracts the contact can be indirect. Some binding calls cover weakened binding; strength is not graded here. For some of these results: Sequences can lack the tags named with a protein.

“TRIM58 C57S C60S (from UniProt Q8NG06 1-486) (enzyme)”: the binding entry with OAS1-FLAG (human) is reported as “binds”.

Consider “TRIM25^K469E (from UniProt Q14258 1-630) (enzyme)”, for which the binding result with ZAP-L-FLAG (human) [1], with ZAP-S wildtype (human), with ZAP-S E39K (human) and in the assay with ZAP^E39K (ZAP-L) (human) was “binds” in each case.

As for “T25-Riplet^SPRY (from UniProt Q14258 1-403; Q8IUD6 241-432)”, the binding entry with ZAP-L-FLAG (human) [1] was “no binding”; in the assay with RIG-I-FLAG (human), “binds”.

“mouse TRIM25 (from UniProt Q61510 1-634) (enzyme)”: the binding entry with mouse ZAP-L (mouse) was “binds”.

Regarding “TRIM25-HA (from UniProt Q14258 1-630) (enzyme)”, the binding entry with ZAP-L-FLAG (human) [1], in the assay with ZAP-L-FLAG (human) [2] and in the assay with ZAP-L-FLAG (human) [3] was “binds” throughout.

On to “Riplet-T25^SPRY (from UniProt Q8IUD6 1-240; Q14258 404-630)”, for which the binding result in the assay with ZAP-L-FLAG (human) [1] is recorded as “binds”.

In the case of BTNL9-HA (from UniProt Q6UXG8 35-535), the binding entry in the assay with STING-FLAG (human) is “binds”.

The values above are taken from paper PMC13175477.
